Some of these results come from one statement about several compounds together.
Columns and labels:
[1] = target: T1, His-tagged cyclin 2/CDK2 (cyclin E2/CDK2) (Homo sapiens, UniProt P24941); test: CDK2 kinase assay; assay type: biochemical; details: 1 nM enzyme, 1 μM Histone-H1, 25 μM ATP, 60 min at 25° C.
T1 construct: made in house; host or cells: Hi5 insect cells (baculovirus, pFastBacDual)

By UniProt entry, the sequences of proteins in these tests, tags left out.
UniProt Q00535, whole entry: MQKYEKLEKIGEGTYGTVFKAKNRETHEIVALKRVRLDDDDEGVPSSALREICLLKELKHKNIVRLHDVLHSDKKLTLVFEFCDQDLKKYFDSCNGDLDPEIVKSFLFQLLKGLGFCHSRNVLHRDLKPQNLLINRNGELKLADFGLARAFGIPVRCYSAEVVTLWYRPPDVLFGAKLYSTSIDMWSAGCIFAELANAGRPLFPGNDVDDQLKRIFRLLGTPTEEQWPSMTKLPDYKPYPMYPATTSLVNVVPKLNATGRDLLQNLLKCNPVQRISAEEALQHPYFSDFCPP

[2] = target: T2, His-tagged p25/CDK5 (Homo sapiens, UniProt Q00535); test: CDK5 kinase assay; assay type: biochemical; details: 1 nM enzyme, 1 μM Histone-H1, 25 μM ATP, 60 min at 25° C.
T2 construct: made in house; host or cells: Hi5 insect cells (baculovirus co-infection)

| SMILES | IC50 [1] [nM] | IC50 [2] [nM] |
| --- | --- | --- |
| CN1CCC[C@H]1COc1cccc(NC(=O)Nc2csc(-c3ccccc3)n2)n1 [Example 319, (S)-1-[6-(1-Methylpyrrolidin-2-ylmethoxy)pyridin-2-yl]-3-(2-phenylthiazol-4-yl)urea] | < 500 | < 500 |
| O=C(Nc1cc(CN2CCCCC2)ccn1)Nc1csc(-c2ccccc2)n1 [Example 311, 1-(2-Phenyl-thiazol-4-yl)-3-(4-piperidin-1-ylmethyl-pyridin-2-yl)-urea] | < 500 | < 500 |
| CN1CCC[C@@H]1COc1cccc(NC(=O)Nc2csc(-c3ccncc3)n2)n1 [Example 316, 1-[6-(1-Methyl-pyrrolidin-2-ylmethoxy)-pyridin-2-yl]-3-(2-pyridin-4-yl-thiazol-4-yl)-urea] | < 500 | < 500 |
| CC(c1cccc(NC(=O)Nc2csc(-c3ccncc3)n2)n1)N1CCCCC1 (centres unmarked) [Example 247, 1-[6-(1-Piperidin-1-yl-ethyl)-pyridin-2-yl]-3-(2-pyridin-4-yl-thiazol-4-yl)-urea] | < 500 | < 500 |
| CCN(CC)C(=O)c1ccnc(NC(=O)Nc2csc(-c3ccccc3)n2)c1 [Example 239, N,N-Diethyl-2-[3-(2-phenyl-thiazol-4-yl)-ureido]-isonicotinamide] |  | < 500 |
| O=C(Nc1cc(C(=O)N2CCCCC2)ccn1)Nc1csc(Cl)n1 [Example 237, 1-(2-Chloro-thiazol-4-yl)-3-[4-(piperidine-1-carbonyl)-pyridin-2-yl]-urea] |  | < 500 |
| CC(C)(C)OC(=O)N1CCC(COc2cccc(NC(=O)Nc3csc(-c4ccncc4)n3)n2)CC1 [Example 328, 4-{6-[3-(2-Pyridin-4-yl-thiazol-4-yl)-ureido]-pyridin-2-yloxymethyl}-piperidine-1-carboxylic acid tert-butyl ester] | < 500 | < 500 |
| CCN(CC)Cc1ccnc(NC(=O)Nc2csc(-c3ccncc3)n2)c1 [Example 242, 1-(4-Diethylaminomethyl-pyridin-2-yl)-3-(2-pyridin-4-yl-thiazol-4-yl)-urea] | < 500 | < 500 |
| CN1CCC(COc2cccc(NC(=O)Nc3csc(-c4ccncc4)n3)n2)CC1 [Example 330, 1-[6-(1-Methyl-piperidin-4-ylmethoxy)-pyridin-2-yl]-3-(2-pyridin-4-yl-thiazol-4-yl)-urea] | < 500 | < 500 |
| Cc1nc(NC(=O)Nc2cccc(OCC3CCCN3C)n2)cs1 (centres unmarked) [Example 315, 1-[6-(1-Methyl-pyrrolidin-2-ylmethoxy)-pyridin-2-yl]-3-(2-methyl-thiazol-4-yl)-urea] |  | < 500 |
| O=C(Nc1cccc(NCCCO)n1)Nc1csc(-c2ccncc2)n1 [Example 294, 1-[6-(3-Hydroxy-propylamino)-pyridin-2-yl]-3-(2-pyridin-4-yl-thiazol-4-yl)-urea] | < 500 | < 500 |
| CC1CCCN(Cc2cccc(NC(=O)Nc3csc(Br)n3)n2)C1 (centres unmarked) [Example 307, 1-(2-Bromo-thiazol-4-yl)-3-[6-(3-methyl-piperidin-1-ylmethyl)-pyridin-2-yl]-urea] | < 500 | < 500 |
| CN1CC=C(c2cccc(NC(=O)Nc3csc(-c4ccncc4)n3)n2)CC1 [Example 291, 1-(1′-Methyl-1′,2′,3′,6′-tetrahydro-[2,4′]bipyridinyl-6-yl)-3-(2-pyridin-4-yl-thiazol-4-yl)-urea] | < 500 | < 500 |
| CC(C)NCc1cccc(NC(=O)Nc2csc(-c3ccccc3)n2)n1 [Example 279, 1-[6-(Isopropylamino-methyl)-pyridin-2-yl]-3-(2-phenyl-thiazol-4-yl)-urea] | < 500 |  |
| O=C(Nc1cccc(OCC2CNC2)n1)Nc1csc(Br)n1 [Example 265, 1-[6-(Azetidin-3-ylmethoxy)-pyridin-2-yl]-3-(2-bromo-thiazol-4-yl)-urea] | < 500 | < 500 |
| CN1CC=C(c2cccc(NC(=O)Nc3csc(Br)n3)n2)CC1 [Example 292, 1-(2-Bromo-thiazol-4-yl)-3-(1′-methyl-1′,2′,3′,6′-tetrahydro-[2,4′]bipyridinyl-6-yl)-urea] | < 500 | < 500 |
| COc1cc(-c2nc(NC(=O)Nc3cccc(OC[C@@H]4CCCN4C)n3)cs2)ccn1 [Example 313, 1-[2-(2-Methoxy-pyridin-4-yl)-thiazol-4-yl]-3-[6-(1-methyl-pyrrolidin-2-ylmethoxy)-pyridin-2-yl]-urea] |  | < 500 |
| CC(C)(C)OC(=O)N1CCCC1COc1cccc(NC(=O)Nc2csc(-c3ccncc3)n2)n1 (centres unmarked) [Example 304, 2-[6-[3-(2-Pyridin-4-yl-thiazol-4-yl)-ureido]-pyridin-2-yloxymethyl]-pyrrolidine-1-carboxylic acid tert-butyl ester] | < 500 | < 500 |
| O=C(Nc1cccc(OCCC2CCNCC2)n1)Nc1csc(Cl)n1 [Example 264, 1-(2-Chloro-thiazol-4-yl)-3-[6-(2-piperidin-4-yl-ethoxy)-pyridin-2-yl]-urea] | < 500 | < 500 |

| SMILES | IC50 [1] [nM] | IC50 [2] [nM] |
| --- | --- | --- |
| CC(C)(C)OC(=O)N1CCC(CCOc2cccc(NC(=O)Nc3csc(-c4ccccc4)n3)n2)CC1 [Example 320, tert-Butyl 4-(2-{6-[3-(2-phenylthiazol-4-yl)-ureido]pyridin-2-yloxy}ethyl)piperidin-1-carboxylate] | < 500 | < 500 |
| O=C(Nc1cccc(OCC2CNC2)n1)Nc1csc(Cl)n1 [Example 266, 1-[6-(Azetidin-3-ylmethoxy)-pyridin-2-yl]-3-(2-chloro-thiazol-4-yl)-urea] | < 500 | < 500 |
| C[C@@H]1CCCN(Cc2cccc(NC(=O)Nc3csc(-c4ccncc4)n3)n2)C1 [Example 251, (R)-1-[6-(3-Methyl-piperidin-1-ylmethyl)-pyridin-2-yl]-3-(2-pyridin-4-yl-thiazol-4-yl)-urea] | < 500 | < 500 |
| O=C(Nc1cccc(OCC2CNC2)n1)Nc1csc(-c2ccccc2)n1 [Example 334, 1-[6-(Azetidin-3-ylmethoxy)-pyridin-2-yl]-3-(2-phenyl-thiazol-4-yl)-urea] | < 500 | < 500 |
| CC(C)N(Cc1cccc(NC(=O)Nc2csc(Cl)n2)n1)C(=O)OC(C)(C)C [Example 280, {6-[3-(2-Chloro-thiazol-4-yl)-urido]-pyridin-2-ylmethyl}-isopropyl-carbamic acid tert-butyl ester] | < 500 | < 500 |
| CN1CCC(c2cccc(NC(=O)Nc3csc(-c4ccncc4)n3)n2)CC1 [Example 296, 1-(1′-Methyl-1′,2′,3′,4′,5′,6′-hexahydro-[2,4′]bipydrinyl-6-yl)-3-(2-pyridin-4-yl-thiazol-4-yl)-urea] | < 500 | < 500 |
| O=C(Nc1cccc(OCC2CCOC2)n1)Nc1csc(-c2ccncc2)n1 (centres unmarked) [Example 301, 1-(2-Pyridin-4-yl-thiazol-4-yl)-3-[6-(tetrahydro-furan-3-ylmethoxy)-pyridin-2-yl]-urea] | < 500 | < 500 |
| O=C(Nc1cccc(Oc2ccc(CN3CCCC3)cc2)n1)Nc1csc(Br)n1 [Example 327, 1-(2-Bromothiazol-4-yl)-3-(6-p-pyrrolidin-1-ylmethylphenoxypyridin-2-yl)urea] | < 500 |  |
| CC(C)(C)OC(=O)N1CC=C(c2cccc(NC(=O)Nc3csc(-c4ccncc4)n3)n2)CC1 [Example 298, 6-[3-(2-Pyridin-4-yl-thiazol-4-yl)-ureido]-3′,6′-dihydro-2′H-[2,4]bipyridinyl-1′-carboxylic acid tert-butylester] | < 500 | < 500 |
| COc1cc(-c2nc(NC(=O)Nc3cccc(Oc4ccccc4)n3)cs2)ccn1 [Example 312, 1-[2-(2-Methoxy-pyridin-4-yl)-thiazol-4-yl]-3-(6-phenoxy-pyridin-2-yl)-urea] |  | < 500 |
| CC(C)(C)OC(=O)N1CCC(COc2cccc(NC(=O)Nc3csc(-c4ccncc4)n3)n2)C1 (centres unmarked) [Example 273, tert-Butyl 3-{6-[3-(2-pyridin-4-yl-thiazol-4-yl)-ureido]-pyridin-2-yloxymethyl}-pyrrolidine-1-carboxylate] | < 500 | < 500 |
| CC(C)NCc1cccc(NC(=O)Nc2csc(-c3ncc(C(C)(C)C)o3)n2)n1 [Example 287, 1-[2-(5-tert-Butyl-oxazol-2-yl)-thiazol-4-yl]-3-[6-(isopropylamino-methyl)-pyridin-2-yl]-urea] | < 500 | < 500 |
| O=C(Nc1cccc(OCC2CCCO2)n1)Nc1csc(-c2ccncc2)n1 (centres unmarked) [Example 300, 1-(2-Pyridin-4-yl-thiazol-4-yl)-3-[6-(tetrahydro-furan-2-ylmethoxy)-pyridin-2-yl]-urea] | < 500 | < 500 |
| CCN(CC)C(=O)c1ccnc(NC(=O)Nc2csc(Br)n2)c1 [Example 240, 2-[3-(2-Bromo-thiazol-4-yl)-ureido]-N,N-diethyl-isonicotinamide] |  | < 500 |
| CN1CCC[C@H]1COc1cccc(NC(=O)Nc2csc(-c3cccc(S(N)(=O)=O)c3)n2)n1 [Example 270, 3-(4-{3-[6-(1-Methyl-pyrrolidin-2-ylmethoxy)-pyridin-2-yl]-ureido}-thiazol-2-yl)-benzenesulfonamide] | < 500 |  |
| O=C(Nc1cccc(OCCC2CCNCC2)n1)Nc1csc(-c2ccccc2)n1 [Example 321, 1-[6-(2-Piperidin-4-yl-ethoxy)pyridin-2-yl]-3-[2-phenylthiazol-4-yl]urea] | < 500 |  |
| CC(C)NCc1cccc(NC(=O)Nc2csc(Cl)n2)n1 [Example 281, 1-(2-Chloro-thiazol-4-yl)-3-[6-(isopropylamino-methyl)-pyridin-2-yl]-urea] | < 500 |  |
| CC(C)N(Cc1cccc(NC(=O)Nc2csc(-c3ncc(C(C)(C)C)o3)n2)n1)C(=O)OC(C)(C)C [Example 286, (6-{3-[2-(5-tert-Butyl-oxazol-2-yl)-thiazol-4-yl]-ureido}-pyridin-2-ylmethyl)-isopropyl-carbamic acid tert-butyl ester] |  | < 500 |
